Test results published in PMC8430998.

Experiments:
CSHQ-NRDP1-FLAG [1] = biological target: T1, CSHQ-NRDP1-FLAG (UniProt Q9H4P4); assay: co-IP; cells (LNCaP by the text, PC-3 by the legend) co-transfected with AR constructs and FLAG-tagged NRDP1-CSHQ (3 μg per 100 mm dish, 72 h); FLAG immunoprecipitation, western blot for AR
T1 sequence: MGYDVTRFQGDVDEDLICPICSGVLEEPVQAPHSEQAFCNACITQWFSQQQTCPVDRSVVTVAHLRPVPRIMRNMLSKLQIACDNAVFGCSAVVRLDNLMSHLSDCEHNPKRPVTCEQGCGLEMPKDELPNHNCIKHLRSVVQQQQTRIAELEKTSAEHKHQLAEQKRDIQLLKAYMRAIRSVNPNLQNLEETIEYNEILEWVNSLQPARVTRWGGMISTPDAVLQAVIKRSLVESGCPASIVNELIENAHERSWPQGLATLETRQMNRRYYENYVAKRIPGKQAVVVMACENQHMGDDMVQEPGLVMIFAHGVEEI

CSHQ-NRDP1-FLAG [2] = biological target: T1, CSHQ-NRDP1-FLAG; assay: co-IP; LNCaP cells transfected with FLAG-tagged NRDP1 constructs (3 μg per 100 mm dish, 72 h); FLAG immunoprecipitation from IP lysis buffer lysate, protein A agarose, western blot for endogenous AR
Wt-NRDP1-FLAG = biological target: T2, Wt-NRDP1-FLAG (UniProt Q9H4P4); assay: as above
T2 sequence: T1 sequence with S34C, Q36H

| Substance | binding (CSHQ-NRDP1-FLAG [1]) | binding (CSHQ-NRDP1-FLAG [2]) | binding (Wt-NRDP1-FLAG) |
| --- | --- | --- | --- |
| AR w/o (missing residues 628–646 of the hinge domain) (receptor) | no binding |  |  |
| AR-ΔDBD (missing residues 538–614 of the DNA binding domain) (receptor) | binds |  |  |
| Androgen receptor (endogenous in LNCaP cells, mutant AR T877A) (human (endogenous in LNCaP)) |  | binds | binds |
| Wt-AR (receptor) | binds |  |  |
| pEL 77 AR (missing residues 647–670 of the hinge domain) (receptor) | no binding |  |  |

Changes are numbered by the printed parent chain. Results are given in words; binding and its absence hold for the method and conditions named. In cells and extracts the contact can be indirect. Binding calls can cover weak binding; strength is not graded here. Sequences can lack the tags named with a protein.
